From PMC5128727, “Metalloprotease SPRTN/DVC1 Orchestrates Replication-Coupled DNA-Protein Crosslink Repair”
No constants are given. Whether binding was seen depends on the method and setting. In cells and extracts the contact can be indirect. Binding can be weak; no strength is given. Where a sequence is shown, tags or fusion partners need not be part of it.

Target: T1, SPRTN-Strep-Strep-His (SSH) (human) (UniProt Q9H040)
T1 sequence: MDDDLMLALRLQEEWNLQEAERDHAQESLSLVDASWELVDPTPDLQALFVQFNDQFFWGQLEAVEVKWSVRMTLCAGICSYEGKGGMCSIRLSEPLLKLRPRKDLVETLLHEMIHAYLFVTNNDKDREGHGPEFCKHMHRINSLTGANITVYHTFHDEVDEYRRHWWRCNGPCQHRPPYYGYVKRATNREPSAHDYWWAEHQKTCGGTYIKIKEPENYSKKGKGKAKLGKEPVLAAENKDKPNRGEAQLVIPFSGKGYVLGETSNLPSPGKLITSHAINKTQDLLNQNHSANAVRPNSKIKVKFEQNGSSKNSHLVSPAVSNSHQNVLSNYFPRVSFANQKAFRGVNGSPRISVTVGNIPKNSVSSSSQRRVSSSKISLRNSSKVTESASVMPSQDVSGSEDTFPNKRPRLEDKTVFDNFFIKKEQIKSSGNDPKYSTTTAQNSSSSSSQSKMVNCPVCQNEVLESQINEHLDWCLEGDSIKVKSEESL
Experiment: co-IP; SPRTN-SSH isolated from total HEK293 cell extracts over Streptactin sepharose under high salt and detergent conditions; partners detected by blot

Which binding does the source give for “DNA polymerase δ (human (endogenous in HEK293))” here?
Its binding is “binds”.
